PubChem BioAssay AID504744, Drosophila RNAi Screening Center, 2011
The deposit covers about 23,000 reagents; shown is a random part of those with a known target gene and a result. Of all reagents, 98 (0.43%) got an active call. 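Only hit calls are given; the phospho-dAkt signals, z-scores and hit direction were not deposited.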 The numbers tell different reagents against one gene apart. Names joined by + are all predicted targets of the reagent.

Purpose: 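Uncover factors, including feedback loops, that control dAkt activation in fly cells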 (primary screen)
System: Drosophila Kc167 cells
Reagents: long dsRNA against Drosophila genes, 250 ng dsRNA per well of a 384-well plate
Timing: 3 days of knock-down, then overnight serum-free starvation before stimulation
Challenge: bovine insulin at 387 nM for 10 minutes after 12 h without serum
Measurement: 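Per-well phospho-dAkt level from an in-cell fluorescent antibody stain, divided by a DNA-dye signal; log2 residuals turned into z-scores that take cell number into account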
Hit rule: 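Under insulin, a gene counts as a hit if the average z-score of two replicates lies above 2.5 or below -2.5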

Gene | dsRNA no. | Call
CG5674 | 1 | inactive
RpL35 (Ribosomal protein L35) | 1 | inactive
CG9593 | 1 | inactive
Taldo (Transaldolase) | 1 | inactive
SmydA-4 (SET and MYND domain containing, arthropod-specific, member 4) | 1 | inactive
SmydA-4 (SET and MYND domain containing, arthropod-specific, member 4) | 2 | inactive
Dhc93AB (Dynein heavy chain at 93AB) | 1 | inactive
Rh50 | 1 | inactive
Best4 (Bestrophin 4) | 1 | inactive
CG5399 | 1 | inactive
Bub1 (Bub1 kinase) | 1 | inactive
Sem1 (Suppressor of exocyst mutations 1) | 1 | inactive
eIF2alpha (eukaryotic translation initiation factor 2 subunit alpha) | 1 | active
CG14757 | 1 | inactive
CG13148 | 1 | inactive
CG2021 | 1 | inactive
CG11426 | 1 | inactive
CG6793 | 1 | inactive
lark | 1 | inactive
MetRS (Methionyl-tRNA synthetase) | 1 | inactive
CG9106 | 1 | inactive
Ip6k (Inositol hexakisphosphate kinase) | 1 | inactive
CG4338 | 1 | inactive
me31B (maternal expression at 31B) | 1 | inactive
Gr97a (Gustatory receptor 97a) | 1 | inactive
CG12782 | 1 | inactive
EndoU (Endoribonuclease U-specific) | 1 | inactive
GLaz (Glial Lazarillo) | 1 | inactive
CG6435 | 1 | inactive
Nlg3 (Neuroligin 3) | 1 | inactive
Nlg3 (Neuroligin 3) | 2 | inactive
Nlg3 (Neuroligin 3) | 3 | inactive
Nlg3 (Neuroligin 3) | 4 | inactive
Nup153 (Nucleoporin 153kD) | 1 | inactive
eIF2gamma (eukaryotic translation initiation factor 2 subunit gamma) | 1 | inactive
eIF2gamma (eukaryotic translation initiation factor 2 subunit gamma) | 2 | inactive
Atf6 | 1 | inactive
Atf6 | 2 | inactive
Cp110 (Centriolar coiled coil protein 110kDa) | 1 | inactive
Cp110 (Centriolar coiled coil protein 110kDa) | 2 | inactive
Pdss2 (Decaprenyl diphosphate synthase subunit 2) | 1 | inactive
CG32102 | 1 | inactive
Als2 (Amyotrophic lateral sclerosis 2) | 1 | inactive
CG17290 | 1 | inactive
CG7650 | 1 | inactive
Or56a (Odorant receptor 56a) | 1 | inactive
CG12898 | 1 | inactive
CG14658 | 1 | inactive
CG17724 | 1 | inactive
CG11403 | 1 | inactive
SdhB (Succinate dehydrogenase, subunit B (iron-sulfur)) | 1 | inactive
SdhB (Succinate dehydrogenase, subunit B (iron-sulfur)) | 2 | inactive
Mst84Dd (Male-specific RNA 84Dd) | 1 | inactive
Loxl1 (Lysyl oxidase-like 1) | 1 | inactive
Trmt61 (tRNA methyltransferase 61) | 1 | inactive
Dnaaf6 (Dynein axonemal assembly factor 6) | 1 | inactive
CG12605 | 1 | inactive
Zw (Zwischenferment) | 1 | inactive
Pex1 (Peroxin 1) | 1 | inactive
pdm3 (pou domain motif 3) | 1 | inactive
pdm3 (pou domain motif 3) | 2 | inactive
pdm3 (pou domain motif 3) | 3 | inactive
ATPsynCF6 (ATP synthase, coupling factor 6) | 1 | inactive
Eip93F (Ecdysone-induced protein 93F) | 1 | inactive
Eip93F (Ecdysone-induced protein 93F) | 2 | inactive
Eip93F (Ecdysone-induced protein 93F) | 3 | inactive
dpr14 (defective proboscis extension response 14) | 1 | inactive
CG32379 | 1 | inactive
CG12535 | 1 | inactive
CG33340 | 1 | inactive
CG14183 | 1 | inactive
CG1213 | 1 | inactive
wuho | 1 | inactive
spt4 | 1 | inactive
c12.2 | 1 | inactive
CHKov2 (CHK domain ov2) | 1 | inactive
Fer2 (48 related 2) | 1 | inactive
gus (gustavus) | 1 | inactive
gus (gustavus) | 2 | inactive
CG32107 | 1 | inactive
Rlb1 | 1 | inactive
CG3038 | 1 | inactive
Myo28B1 (Myosin 28B1) | 1 | inactive
CG10098 | 1 | inactive
CG34163 | 1 | inactive
CG34126 | 1 | inactive
CG34126 | 2 | inactive
Optix | 1 | inactive
Optix | 2 | inactive
Optix | 3 | inactive
Obp58d (Odorant-binding protein 58d) | 1 | inactive
CG5377 | 1 | inactive
Cyp6t2Psi (pseudo) | 1 | inactive
tplus3a + tplus3b | 1 | inactive
CG6688 | 1 | inactive

19 of these entries in another layout.
{"Gene": "CG4338", "dsRNA no.": 1, "Call": "inactive"}
{"Gene": "me31B (maternal expression at 31B)", "dsRNA no.": 1, "Call": "inactive"}
{"Gene": "Gr97a (Gustatory receptor 97a)", "dsRNA no.": 1, "Call": "inactive"}
{"Gene": "CG12782", "dsRNA no.": 1, "Call": "inactive"}
{"Gene": "EndoU (Endoribonuclease U-specific)", "dsRNA no.": 1, "Call": "inactive"}
{"Gene": "GLaz (Glial Lazarillo)", "dsRNA no.": 1, "Call": "inactive"}
{"Gene": "CG6435", "dsRNA no.": 1, "Call": "inactive"}
{"Gene": "Nlg3 (Neuroligin 3)", "dsRNA no.": 1, "Call": "inactive"}
{"Gene": "Nlg3 (Neuroligin 3)", "dsRNA no.": 2, "Call": "inactive"}
{"Gene": "Nlg3 (Neuroligin 3)", "dsRNA no.": 3, "Call": "inactive"}
{"Gene": "Nlg3 (Neuroligin 3)", "dsRNA no.": 4, "Call": "inactive"}
{"Gene": "Nup153 (Nucleoporin 153kD)", "dsRNA no.": 1, "Call": "inactive"}
{"Gene": "eIF2gamma (eukaryotic translation initiation factor 2 subunit gamma)", "dsRNA no.": 1, "Call": "inactive"}
{"Gene": "eIF2gamma (eukaryotic translation initiation factor 2 subunit gamma)", "dsRNA no.": 2, "Call": "inactive"}
{"Gene": "Atf6", "dsRNA no.": 1, "Call": "inactive"}
{"Gene": "Atf6", "dsRNA no.": 2, "Call": "inactive"}
{"Gene": "Cp110 (Centriolar coiled coil protein 110kDa)", "dsRNA no.": 1, "Call": "inactive"}
{"Gene": "Cp110 (Centriolar coiled coil protein 110kDa)", "dsRNA no.": 2, "Call": "inactive"}
{"Gene": "Pdss2 (Decaprenyl diphosphate synthase subunit 2)", "dsRNA no.": 1, "Call": "inactive"}

The listing continues.
Gene | dsRNA no. | Call
Taf12 (TBP-associated factor 12) | 1 | inactive
AP-2alpha (Adaptor Protein complex 2, alpha subunit) | 1 | inactive
eca (eclair) | 1 | inactive
CG15861 | 1 | inactive
ppk12 (pickpocket 12) | 1 | inactive
Trim9 (Tripartite motif containing 9) | 1 | inactive
CYTB (retired record) | 1 | inactive
AstA (Allatostatin A) | 1 | inactive
CG43325 | 1 | inactive
CG13607 | 1 | inactive
Elp2 (Elongator complex protein 2) | 1 | inactive
CG5388 | 1 | inactive
apt (apontic) | 1 | inactive
Mov10 (Mov10 RISC complex RNA helicase) | 1 | inactive
CG33491 (retired record) + CG33496 (retired record) + CG33487 (retired record) + 1 more | 1 | inactive
CG32075 | 1 | inactive
CG9624 | 1 | inactive
Ilp5 (Insulin-like peptide 5) | 1 | inactive
CG7320 | 1 | inactive
bumpel | 1 | inactive
Nipped-B | 1 | inactive
cpx (complexin) | 1 | inactive
Ythdf (YTH N6-methyladenosine RNA binding protein) | 1 | inactive
Ythdf (YTH N6-methyladenosine RNA binding protein) | 2 | inactive
CG4763 | 1 | inactive
CG4763 | 2 | inactive
CG15337 | 1 | inactive
CG15337 | 2 | inactive
Adsl (Adenylosuccinate lyase) | 1 | inactive
CG11889 + CG11891 | 1 | inactive
CG11889 + CG11891 | 2 | inactive
beat-Ic (beaten path Ic) | 1 | inactive
beat-Ic (beaten path Ic) | 2 | inactive
Su(Tpl) (Suppressor of Triplolethal) | 1 | inactive
sNPF (short neuropeptide F precursor) | 1 | inactive
Npc2c (Niemann-Pick type C-2c) | 1 | inactive
PCNA (Proliferating cell nuclear antigen) | 1 | inactive
UQCR-6.4 (Ubiquinol-cytochrome c reductase 6.4 kDa subunit) | 1 | inactive
CG30060 | 1 | inactive
CG7016 | 1 | inactive
CG17168 | 1 | inactive
CG8407 | 1 | inactive
CG34382 | 1 | inactive
CG34382 | 2 | inactive
CG34382 | 3 | inactive
BI-1 (Bax Inhibitor-1) | 1 | inactive
okr (okra) | 1 | inactive
Mal-A5 (Maltase A5) | 1 | inactive
CG12084 | 1 | inactive
CG33502 + CG32857 + CG32500 | 1 | inactive
CG33502 + CG32857 + CG32500 | 2 | inactive
Spt (Spitting Image) | 1 | inactive
NKCC (sodium potassium chloride cotransporter) | 1 | inactive
NKCC (sodium potassium chloride cotransporter) | 2 | inactive
qsm (quasimodo) | 1 | inactive
qsm (quasimodo) | 2 | inactive
p (pink) | 1 | inactive
PCNA2 (Proliferating cell nuclear antigen 2) | 1 | inactive
sicily (severe impairment of CI with lengthened youth) | 1 | inactive
grp + CG31782 (retired record) | 1 | inactive
CG6553 | 1 | inactive
nom (numerous disordered muscles) | 1 | inactive
Hrd3 (HMG-coA reductase degradation 3) | 1 | inactive
CG6972 | 1 | inactive
Tsp74F (Tetraspanin 74F) | 1 | inactive
asun (asunder) | 1 | inactive
CG14416 | 1 | inactive
Mgtor (Megator) | 1 | inactive
CG5742 | 1 | inactive
Chi (Chip) | 1 | inactive
CG34238 | 1 | inactive
CG34265 | 1 | inactive
RpLP0 (Ribosomal protein LP0) | 1 | inactive
RpLP0 (Ribosomal protein LP0) | 2 | inactive
CG13070 | 1 | inactive
ninaA (neither inactivation nor afterpotential A) | 1 | inactive
CG31368 | 1 | inactive
CG31368 | 2 | inactive
CG4408 | 1 | inactive
CG17110 | 1 | inactive
ste24a (prenyl protease type I) | 1 | inactive
Pde9 (Phosphodiesterase 9) | 1 | inactive
Pde9 (Phosphodiesterase 9) | 2 | inactive
Pde9 (Phosphodiesterase 9) | 3 | inactive
Pde9 (Phosphodiesterase 9) | 4 | inactive
rad (retired record) | 1 | inactive
rad (retired record) | 2 | inactive
Mesh1 (Metazoan SpoT homolog-1) | 1 | inactive
CG13097 | 1 | inactive
CG31924 | 1 | inactive
Lmx1a (LIM homeobox transcription factor 1 alpha) | 1 | inactive
Lmx1a (LIM homeobox transcription factor 1 alpha) | 2 | inactive
CG6420 | 1 | inactive
spz6 (spatzle 6) | 1 | inactive
l(2)09851 (lethal (2) 09851) | 1 | inactive
CycE (Cyclin E) | 1 | inactive
CycE (Cyclin E) | 2 | inactive
Trm7-32 (tRNA methyltransferase 7-32) | 1 | inactive
Xxylt (Xyloside xylosyltransferase) | 1 | inactive
Nmdmc (NAD-dependent methylenetetrahydrofolate dehydrogenase) | 1 | inactive
E23 (Early gene at 23) | 1 | inactive
E23 (Early gene at 23) | 2 | inactive
side-VI (sidestep VI) | 1 | inactive
side-VI (sidestep VI) | 2 | inactive
side-VI (sidestep VI) | 3 | inactive
side-VI (sidestep VI) | 4 | inactive
